Measured values published in article PMC7819943, “Rice protein-binding microarrays: a tool to detect cis-acting elements near promoter regions in rice”.
The list shows a part of the results.

Chains of the proteins cited; added tags and fusions are not shown.
UniProt Q0JBA9, entry or part of it: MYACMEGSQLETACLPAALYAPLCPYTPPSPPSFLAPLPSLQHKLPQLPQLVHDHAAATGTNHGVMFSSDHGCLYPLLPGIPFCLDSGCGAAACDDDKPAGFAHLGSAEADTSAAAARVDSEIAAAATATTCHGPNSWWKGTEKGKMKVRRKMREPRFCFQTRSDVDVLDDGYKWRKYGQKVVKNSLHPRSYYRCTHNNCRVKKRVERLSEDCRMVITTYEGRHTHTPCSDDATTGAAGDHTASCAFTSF

Target: OsWRKY34 (Oryza sativa, UniProt Q0JBA9 1-250)
Test: protein-binding microarray (RPBM); PBS, 2% BSA, 51.3 ng/ul salmon testes DNA, 50 uM zinc acetate, 200 nM TF, 25 C, 1 h; high values mean tight binding
Conditions: protein: recombinant; tags: N-terminal polyhistidine and DsRed monomer fusion (pET32a); label: CyDye5-dUTP incorporated in the synthesized complementary strand; 3' TTTTT single-stranded linker to array surface; dsDNA, one strand shown
Method in brief: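 An Axon 4000B scanner gave the binding signal as per-feature fluorescence intensity in arbitrary units. This followed washing of a custom Agilent array that had been incubated for 1 h at 25 °C with 200 nM protein in PBS, 2% BSA, salmon testes DNA and 50 µM zinc acetate. The proteins were transcription factors fused at the N-terminus to polyhistidine and DsRed, expressed in E. coli BL21-CodonPlus and purified on Ni–NTA.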

Q: “TCATTGGCATGTTTTTTCTCCAGCTGAAGTTGTTTGCCATCGGAGTCACCTAGTGCAG” was tested. Which binding signal did it give?
A: 9860 fluorescence intensity (a.u.)

Q: Which binding signal does the source give for “ATGGGTTCCAACCCACCCCTCGTTTTCCATGTGCACGTTTCGGAGTCACCTAGTGCAG” here?
A: 8140 fluorescence intensity (a.u.)

Q: For “CGCCTCCGAACATCTCTCTACGCGCGACGCCCACCAGTACCGGAGTCACCTAGTGCAG”, which binding signal is on record?
A: 8680 fluorescence intensity (a.u.)

Q: With “ACCATGCTTTCTTCGTCGTCTACCTCGCCGGCGTCCGCTTCGGAGTCACCTAGTGCAG” as the sequence, how does the binding signal read?
A: 8710 fluorescence intensity (a.u.)

Q: For “TCACCCATTTTTAGCTTGGTCATCATCAAAAGTAGGATCACGGAGTCACCTAGTGCAG”, which binding signal is on record?
A: 8100 fluorescence intensity (a.u.)

Q: For “GATACGTTCATCCGTTTTCATGGCCGGCCGGCTACCACCGCGGAGTCACCTAGTGCAG”, which binding signal is on record?
A: 8910 fluorescence intensity (a.u.)

Q: Which binding signal does the source give for “TCTCGCCTCGCCGCGCACATGACATTGATAATAACACCGTCGGAGTCACCTAGTGCAG” here?
A: 8770 fluorescence intensity (a.u.)

Q: “AGTTCAGTTCAGTTCAGTTTTTGTTACGTCGTCGTTCGAGCGGAGTCACCTAGTGCAG” was tested. Which binding signal did it give?
A: 8850 fluorescence intensity (a.u.)

Q: Which binding signal does the source give for “ACGCCACGATGGCCTCCTCGCCCGCCCCACCAGGACACCACGGAGTCACCTAGTGCAG” here?
A: 8960 fluorescence intensity (a.u.)

Q: “TGGATCCTCTGCATATTGTTCAGTCTTGTCCTTTTGCTTTCGGAGTCACCTAGTGCAG” was tested. Which binding signal did it give?
A: 9080 fluorescence intensity (a.u.)

Q: For “CTCCGCGGGACGCGTGTCTCCGCTCCCACGCCGCTGTCTACGGAGTCACCTAGTGCAG”, which binding signal is on record?
A: 8040 fluorescence intensity (a.u.)

Q: With “CACTGGTTTTGATAGTTGAGGGACTCTTGTGTCTGGTTTTCGGAGTCACCTAGTGCAG” as the sequence, how does the binding signal read?
A: 8510 fluorescence intensity (a.u.)

Q: With “TCTATGTCTATCTCTCATCCGATTCCTACATTTTTCCTGCCGGAGTCACCTAGTGCAG” as the sequence, how does the binding signal read?
A: 11300 fluorescence intensity (a.u.)

Q: With “TAGCCCCAACTTCTTTTAGATTTTCTTTTTCGAAAAGAGACGGAGTCACCTAGTGCAG” as the sequence, how does the binding signal read?
A: 9040 fluorescence intensity (a.u.)

Q: For “TCACATATGTGTGCTATGATTTGTTTTCTTCCTCACCAAACGGAGTCACCTAGTGCAG”, which binding signal is on record?
A: 8190 fluorescence intensity (a.u.)

Q: Which binding signal does the source give for “AGATTTTTTCCATTTCCATGTGTGTGCTATGAACACCGTGCGGAGTCACCTAGTGCAG” here?
A: 8050 fluorescence intensity (a.u.)

Q: For “CTAGTCACATTCTGAATCTCTTTTCCTTTTTCCAGTGTCTCGGAGTCACCTAGTGCAG”, which binding signal is on record?
A: 8100 fluorescence intensity (a.u.)

Q: With “TCTTCTTCTTCTTCCACCCGTTGCTGATTCCCTCACTGCTCGGAGTCACCTAGTGCAG” as the sequence, how does the binding signal read?
A: 8180 fluorescence intensity (a.u.)

Q: How did the binding signal turn out when “TTTTGTAAGTTGAGGGATGTGATATATCTGGTTTTGCGGTCGGAGTCACCTAGTGCAG” was run?
A: 10600 fluorescence intensity (a.u.)

Q: How did the binding signal turn out when “TCCATCTGGCGAGCAGGGTAGGGGAGGGGAAGGGATCCTGCGGAGTCACCTAGTGCAG” was run?
A: 15100 fluorescence intensity (a.u.)

Q: How did the binding signal turn out when “CGCTGCTTCTGATCATCTCCCGTTCTTGCATTCTTCTTCTCGGAGTCACCTAGTGCAG” was run?
A: 19400 fluorescence intensity (a.u.)

Q: Which binding signal does the source give for “CCCTCTTGCAGTGTGTTCTCTCGTATCCACACGCGCAAGCCGGAGTCACCTAGTGCAG” here?
A: 8550 fluorescence intensity (a.u.)

Q: How did the binding signal turn out when “TAGGATCGGGTTCTCGTCGCCGCTTGCTGATGATCTGTTCCGGAGTCACCTAGTGCAG” was run?
A: 9220 fluorescence intensity (a.u.)

Q: “ACATGCTAACTTCAAATTAAATACGGTCTCCTAATTGCAGCGGAGTCACCTAGTGCAG” was tested. Which binding signal did it give?
A: 8100 fluorescence intensity (a.u.)

Q: Which binding signal does the source give for “GAGATTTTGACTATTAATTTTCATCGTCTTTGGTTTTAAGCGGAGTCACCTAGTGCAG” here?
A: 8300 fluorescence intensity (a.u.)

Q: “CATGACCTCCTCTACTCACAGTATTTTTGCCCAAAATTTCCGGAGTCACCTAGTGCAG” was tested. Which binding signal did it give?
A: 8800 fluorescence intensity (a.u.)

Q: “GCGTCTGCGGGATTTGGGGAGGGGAGCGGCGGCGGAGATGCGGAGTCACCTAGTGCAG” was tested. Which binding signal did it give?
A: 9820 fluorescence intensity (a.u.)

Q: For “GGCGCCTCGACCAACCAACCTGTCTATCTGCTTCCTCGACCGGAGTCACCTAGTGCAG”, which binding signal is on record?
A: 11700 fluorescence intensity (a.u.)

Q: How did the binding signal turn out when “GTGGTAGATACTTACTTACTCCTAAGTCACGAAATAGTTTCGGAGTCACCTAGTGCAG” was run?
A: 8610 fluorescence intensity (a.u.)

Q: For “GGGTGAGTAATATCTGGTTTTTGGGTTTAGGGCGGTAATTCGGAGTCACCTAGTGCAG”, which binding signal is on record?
A: 17700 fluorescence intensity (a.u.)

Q: “GGTATCTCTTTGTTCAGCTCTCTATTCACAACTTGAGGGGCGGAGTCACCTAGTGCAG” was tested. Which binding signal did it give?
A: 11300 fluorescence intensity (a.u.)

Q: “TGCTAGAGAAAGTCTCTTATTTTTCATACACACGTTTTCCCGGAGTCACCTAGTGCAG” was tested. Which binding signal did it give?
A: 10100 fluorescence intensity (a.u.)

Q: Which binding signal does the source give for “GTCCCCGCGGCTCATCTCCCTCCTCAGGCAAAGCGCAGCACGGAGTCACCTAGTGCAG” here?
A: 8080 fluorescence intensity (a.u.)

Q: Which binding signal does the source give for “CTCTCTCATCTCGCTGTAGTCCACACGCGGACATGCCGCCCGGAGTCACCTAGTGCAG” here?
A: 8470 fluorescence intensity (a.u.)

Q: “TAAAAATCAGCTAGTGTGGGATGGGATCTCGAATTTTCTGCGGAGTCACCTAGTGCAG” was tested. Which binding signal did it give?
A: 8760 fluorescence intensity (a.u.)

Q: Which binding signal does the source give for “TTTGCATTTATTTTTCATTGTTTCCGTCACTTTAGAAATTCGGAGTCACCTAGTGCAG” here?
A: 8260 fluorescence intensity (a.u.)

Q: For “TTTCCTGTTGTCATACTTAGTACTGCCCTTTATAAGTTGACGGAGTCACCTAGTGCAG”, which binding signal is on record?
A: 8680 fluorescence intensity (a.u.)

Q: With “TATCCTCTTTGCTGCTAATGGTGTCATTATCCCGTGTGTACGGAGTCACCTAGTGCAG” as the sequence, how does the binding signal read?
A: 10100 fluorescence intensity (a.u.)

Q: For “GAACCATTTACAGTTATATACCGTATCGTTTACTATTTGTCGGAGTCACCTAGTGCAG”, which binding signal is on record?
A: 8140 fluorescence intensity (a.u.)

Q: “ATCTTCGCTCTAGTCTCAGCTCAAAAGCTTTTGACCATTCCGGAGTCACCTAGTGCAG” was tested. Which binding signal did it give?
A: 10900 fluorescence intensity (a.u.)

Q: “GTCGGTTTCTTCGCTCCATTGTTCTGTTCCTTGCTCGAGACGGAGTCACCTAGTGCAG” was tested. Which binding signal did it give?
A: 9940 fluorescence intensity (a.u.)

Q: With “CGTACGTCTACCATTTCTCTCTCCTTGCTGTAGGAATGACCGGAGTCACCTAGTGCAG” as the sequence, how does the binding signal read?
A: 9260 fluorescence intensity (a.u.)
